Laboratory results: paper doi:10.1101/2023.10.27.564116

Protein sequences, listed by entry. Tags and fused reporters are not part of them. Lines headed by an entry give the natural chain unless they say otherwise; changes in a name come on top.
UniProt Q7ZYC1: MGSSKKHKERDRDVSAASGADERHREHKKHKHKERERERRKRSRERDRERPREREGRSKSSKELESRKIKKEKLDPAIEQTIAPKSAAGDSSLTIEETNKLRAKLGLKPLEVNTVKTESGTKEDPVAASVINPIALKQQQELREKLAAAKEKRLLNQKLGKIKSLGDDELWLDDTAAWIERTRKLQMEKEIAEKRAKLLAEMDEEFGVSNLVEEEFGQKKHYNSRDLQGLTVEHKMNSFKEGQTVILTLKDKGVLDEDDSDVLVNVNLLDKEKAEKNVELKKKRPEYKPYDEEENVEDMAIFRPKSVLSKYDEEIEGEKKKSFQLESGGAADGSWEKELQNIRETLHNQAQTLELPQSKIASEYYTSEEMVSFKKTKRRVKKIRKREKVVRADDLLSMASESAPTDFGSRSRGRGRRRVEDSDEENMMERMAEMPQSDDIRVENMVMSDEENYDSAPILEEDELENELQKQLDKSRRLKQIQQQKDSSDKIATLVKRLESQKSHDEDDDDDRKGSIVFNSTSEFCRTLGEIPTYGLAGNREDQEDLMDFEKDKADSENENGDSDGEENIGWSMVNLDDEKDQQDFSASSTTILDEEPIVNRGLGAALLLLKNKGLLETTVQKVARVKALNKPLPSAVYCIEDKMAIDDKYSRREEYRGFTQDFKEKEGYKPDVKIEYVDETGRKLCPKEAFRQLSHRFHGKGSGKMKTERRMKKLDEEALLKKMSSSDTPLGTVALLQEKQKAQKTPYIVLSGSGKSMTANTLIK
UniProt P70039: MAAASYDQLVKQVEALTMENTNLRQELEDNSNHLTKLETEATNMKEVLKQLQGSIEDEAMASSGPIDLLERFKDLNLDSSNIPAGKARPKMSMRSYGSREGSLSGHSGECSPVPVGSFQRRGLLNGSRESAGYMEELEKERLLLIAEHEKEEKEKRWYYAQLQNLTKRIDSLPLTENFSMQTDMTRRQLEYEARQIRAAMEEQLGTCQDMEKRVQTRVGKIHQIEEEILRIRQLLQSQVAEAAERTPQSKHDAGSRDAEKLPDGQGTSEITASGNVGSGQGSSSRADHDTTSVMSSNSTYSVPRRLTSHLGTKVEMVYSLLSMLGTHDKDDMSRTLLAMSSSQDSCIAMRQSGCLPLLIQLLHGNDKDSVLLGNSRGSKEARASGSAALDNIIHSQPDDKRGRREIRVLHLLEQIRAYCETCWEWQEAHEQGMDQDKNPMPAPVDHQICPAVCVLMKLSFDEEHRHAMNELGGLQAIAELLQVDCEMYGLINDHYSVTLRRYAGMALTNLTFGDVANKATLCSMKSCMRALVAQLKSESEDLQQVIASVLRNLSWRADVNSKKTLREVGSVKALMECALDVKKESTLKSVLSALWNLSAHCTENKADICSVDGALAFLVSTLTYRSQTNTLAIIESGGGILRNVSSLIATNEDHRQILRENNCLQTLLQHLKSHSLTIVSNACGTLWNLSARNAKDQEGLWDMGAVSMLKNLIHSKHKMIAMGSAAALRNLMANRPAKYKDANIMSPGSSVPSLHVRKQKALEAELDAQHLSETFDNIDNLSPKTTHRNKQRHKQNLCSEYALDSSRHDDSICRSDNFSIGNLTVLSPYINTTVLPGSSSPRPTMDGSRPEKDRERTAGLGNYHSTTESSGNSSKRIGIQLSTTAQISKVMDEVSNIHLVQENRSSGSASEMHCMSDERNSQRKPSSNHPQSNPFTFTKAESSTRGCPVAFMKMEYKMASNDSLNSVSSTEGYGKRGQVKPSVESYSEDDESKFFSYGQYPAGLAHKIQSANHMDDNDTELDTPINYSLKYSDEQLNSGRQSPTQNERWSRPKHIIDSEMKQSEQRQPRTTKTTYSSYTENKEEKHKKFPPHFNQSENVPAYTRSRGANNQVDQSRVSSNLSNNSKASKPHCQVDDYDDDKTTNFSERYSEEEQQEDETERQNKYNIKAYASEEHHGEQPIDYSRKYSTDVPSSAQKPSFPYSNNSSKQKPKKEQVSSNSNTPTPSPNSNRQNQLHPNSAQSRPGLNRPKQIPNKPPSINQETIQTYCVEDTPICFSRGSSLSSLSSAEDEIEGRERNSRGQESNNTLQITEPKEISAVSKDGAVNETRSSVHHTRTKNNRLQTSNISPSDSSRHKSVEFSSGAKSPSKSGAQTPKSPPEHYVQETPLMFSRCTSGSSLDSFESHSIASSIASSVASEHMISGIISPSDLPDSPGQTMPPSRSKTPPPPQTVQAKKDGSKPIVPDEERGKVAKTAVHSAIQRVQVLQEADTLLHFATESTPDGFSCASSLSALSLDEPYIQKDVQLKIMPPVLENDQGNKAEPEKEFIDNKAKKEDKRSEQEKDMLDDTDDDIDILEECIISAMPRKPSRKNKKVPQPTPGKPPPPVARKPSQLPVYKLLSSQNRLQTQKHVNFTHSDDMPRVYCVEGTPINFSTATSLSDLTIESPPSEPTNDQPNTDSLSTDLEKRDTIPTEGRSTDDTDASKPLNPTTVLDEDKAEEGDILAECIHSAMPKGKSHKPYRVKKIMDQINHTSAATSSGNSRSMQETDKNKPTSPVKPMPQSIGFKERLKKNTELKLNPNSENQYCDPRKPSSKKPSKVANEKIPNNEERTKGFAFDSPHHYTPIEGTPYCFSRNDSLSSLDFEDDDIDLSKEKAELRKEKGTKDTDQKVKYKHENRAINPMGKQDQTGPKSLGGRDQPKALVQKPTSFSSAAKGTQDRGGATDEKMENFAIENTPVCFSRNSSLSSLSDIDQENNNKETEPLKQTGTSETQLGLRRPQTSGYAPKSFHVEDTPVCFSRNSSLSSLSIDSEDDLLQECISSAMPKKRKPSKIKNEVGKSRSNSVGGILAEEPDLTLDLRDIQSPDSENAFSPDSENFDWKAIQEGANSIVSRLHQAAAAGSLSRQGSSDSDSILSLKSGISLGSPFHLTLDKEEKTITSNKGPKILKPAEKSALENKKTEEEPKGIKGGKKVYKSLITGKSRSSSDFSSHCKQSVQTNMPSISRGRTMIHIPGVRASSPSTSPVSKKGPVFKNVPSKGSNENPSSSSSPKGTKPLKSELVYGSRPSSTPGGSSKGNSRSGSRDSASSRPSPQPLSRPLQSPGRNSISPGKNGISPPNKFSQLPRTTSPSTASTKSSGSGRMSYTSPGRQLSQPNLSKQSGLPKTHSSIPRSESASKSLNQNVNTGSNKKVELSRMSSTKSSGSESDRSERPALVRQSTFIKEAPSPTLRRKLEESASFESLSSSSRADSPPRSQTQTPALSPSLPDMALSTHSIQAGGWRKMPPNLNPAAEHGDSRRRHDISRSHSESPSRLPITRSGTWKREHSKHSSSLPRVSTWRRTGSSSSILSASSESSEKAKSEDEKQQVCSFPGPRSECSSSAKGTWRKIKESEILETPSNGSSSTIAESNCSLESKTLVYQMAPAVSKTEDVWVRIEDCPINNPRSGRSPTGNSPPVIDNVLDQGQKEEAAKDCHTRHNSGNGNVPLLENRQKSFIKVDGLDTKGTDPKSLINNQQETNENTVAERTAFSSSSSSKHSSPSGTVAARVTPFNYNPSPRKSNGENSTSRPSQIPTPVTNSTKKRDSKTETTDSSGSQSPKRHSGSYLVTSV
UniProt P70032: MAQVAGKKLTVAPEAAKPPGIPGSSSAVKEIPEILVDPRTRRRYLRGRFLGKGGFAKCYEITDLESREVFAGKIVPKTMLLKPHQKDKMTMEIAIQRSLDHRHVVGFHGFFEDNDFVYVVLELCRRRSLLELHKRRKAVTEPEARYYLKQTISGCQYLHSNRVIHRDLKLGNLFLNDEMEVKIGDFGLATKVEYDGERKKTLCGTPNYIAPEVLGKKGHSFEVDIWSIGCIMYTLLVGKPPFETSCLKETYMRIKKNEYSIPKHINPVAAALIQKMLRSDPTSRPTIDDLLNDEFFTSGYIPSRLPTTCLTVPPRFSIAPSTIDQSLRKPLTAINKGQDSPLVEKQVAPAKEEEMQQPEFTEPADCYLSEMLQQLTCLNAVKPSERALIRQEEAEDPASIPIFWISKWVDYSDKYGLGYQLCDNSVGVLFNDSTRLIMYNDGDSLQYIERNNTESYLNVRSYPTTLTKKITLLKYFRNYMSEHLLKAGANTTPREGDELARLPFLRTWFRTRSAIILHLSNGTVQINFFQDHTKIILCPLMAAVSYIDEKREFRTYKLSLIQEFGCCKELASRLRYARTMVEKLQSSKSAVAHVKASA
UniProt P09406: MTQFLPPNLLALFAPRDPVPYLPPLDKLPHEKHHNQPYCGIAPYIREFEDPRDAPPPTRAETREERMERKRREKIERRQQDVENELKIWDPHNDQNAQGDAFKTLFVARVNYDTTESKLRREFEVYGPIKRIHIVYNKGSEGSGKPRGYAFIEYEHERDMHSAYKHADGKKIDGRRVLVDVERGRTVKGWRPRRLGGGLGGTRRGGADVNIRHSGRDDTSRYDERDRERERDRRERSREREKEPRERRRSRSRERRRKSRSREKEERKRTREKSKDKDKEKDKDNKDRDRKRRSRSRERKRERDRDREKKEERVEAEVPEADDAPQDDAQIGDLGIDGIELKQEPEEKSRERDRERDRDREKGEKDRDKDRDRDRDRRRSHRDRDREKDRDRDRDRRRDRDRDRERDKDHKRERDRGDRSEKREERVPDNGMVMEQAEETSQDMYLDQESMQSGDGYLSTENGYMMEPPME
UniProt P45429: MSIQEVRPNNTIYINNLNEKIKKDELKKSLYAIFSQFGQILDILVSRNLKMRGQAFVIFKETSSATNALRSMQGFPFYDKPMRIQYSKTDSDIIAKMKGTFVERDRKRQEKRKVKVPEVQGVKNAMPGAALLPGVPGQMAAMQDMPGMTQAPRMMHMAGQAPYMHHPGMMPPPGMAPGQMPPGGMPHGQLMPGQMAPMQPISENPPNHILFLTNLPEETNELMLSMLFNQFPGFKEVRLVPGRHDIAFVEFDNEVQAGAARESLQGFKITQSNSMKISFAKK

B1: SF3B1 (protein, UniProt O57683 1-1307)
chain: MAKVAKTHEDIEAQIREIQGKKAALDEEEGVGLDSTGYFDQEIYGGSDSRFTGYVTSIAANEQEDDDDDVSSATFEQKKPGYHAPVALLNDIPQSTEQYDPFAEHRPQKIANREDEYKQQRRKMIISPERLDPFADGGKTPDPKLNARTFKDVMQEQYLTKEEREIRQQIAEKAKSGDLKVVNGSSASSAAQPPSKRKRRWDQTGDQTPGSTPKKLSSWDQAEVTPGHTPSSLRWDETPGRAKGNETPGATPGSKIWDPTPSHTPAGVATPGRGDTPGHVTPGHSGATSSARKNRWDETPKTERDTPGHGSGWAETPRTDRGGDSIGETPTPGASKRKSRWDETPASQMGGSTPVLTPGKTPIGTPAMNMATPTPGHIMSMTPEQLQAWRWEREIDERNRPLSDEELDAMFPEGYKVLPPPAGYVPIRTPARKLTATPTPLGGLTGFHMPTEDRSMKSVSDQPSGNLPFLKPDDIQYFDKLLVDVDESTLSPEEQKERKIMKLLLKIKNGTPPMRKAALRQITDKAREFGAGPLFNQILPLLMSPTLEDQERHLLVKVIDRILYKLDDLVRPYVHKILVVIEPLLIDEDYYARVEGREIISNLAKAAGLATMISTMRPDIDNMDEYVRNTTARAFAVVASALGIPSLLPFLKAVCKSKKSWQARHTGIKIVQQIAILMGCAILPHLRSLVEIIEHGLVDEQQKVRTISALAIAALAEAATPYGIESFDSVLKPLWKGIRQHRGKGLAAFLKAIGYLIPLMDAEYANYYTREVMLILIREFQSPDEEMKKIVLKVVKQCCGTDGVEANYIKTEILPPFFKHFWQHRMALDRRNYRQLVDTTVELANKVGAAEIISRIVDDLKDEAEQYRKMVMETIEKIMGNLGAADIDHKLEEQLIDGILYAFQEQTTEDSVMLNGFGTVVNALGKRVKPYLPQICGTVLWRLNNKSAKVRQQAADLISRTAVVMKTCQEEKLMGHLGVVLYEYLGEEYPEVLGSILGALKAIVNVIGMHKMTPPIKDLLPRLTPILKNRHEKVQENCIDLVGRIADRGAEYVSAREWMRICFELLELLKAHKKAIRRATVNTFGYIAKAIGPHDVLATLLNNLKVQERQNRVCTTVAIAIVAETCSPFTVLPALMNEYRVPELNVQNGVLKSLSFLFEYIGEMGKDYIYAVTPLLEDALMDRDLVHRQTASAVVQHMSLGVYGFGCEDSLNHLLNYVWPNVFETSPHVIQAVMGALEGLRVAIGPCRMVQYCLQGLFHPARKVRDVYWKIYNSIYIGSQDALIAHYPRIYNDEKNTYIRYELDYTL
B2: DDX42 (protein, UniProt Q7ZY47 1-947)
chain: MNWNKGGSGNKRGFGFGGFAISTGKKEEPKLPQVSHSAFQSASSKYGSTSNQLPSFYKIGSKRANFDEENSYFDDEEEDSSNVDLPYIPAENSPTRQQLRSKTDSDSEEDPLEAFMAEVEDQAAKDMRKLEERDKEKANARGIRDDIEEEDDQEAYFRYMAENPTAGLVPEEEEDNLEYDSDGNPIAPTTKRIIDPLPPIDHTEIEYPPFEKNFYEEHEAITSQTPQQITELRHKLNLRVSGAAPPRLCSSFAHFGFDEQLLHQIRKSEYTQPTPIQCQGIPVALSGRDMIGIAKTGSGKTAAFIWPILVHIMDQKELQPADGPIAVIVCPTRELCQQIHSECKRFGKAYNLRSVAVYGGGSMWEQAKALQEGAEIVVCTPGRLIDHVKKKATNLQRVTYLVFDEADRMFDMGFEYQVRSIANHVRPDRQTLLFSATFRKKIEKLARDILVDPIRVVQGDIGEANEDITQVVEILPSGPEKWTWLTRRLVEFTSTGSVLVFVTKKANAEELAANLRQDDHPLGLLHGDMDQSERNKVISDFKKKSIPVLVATDVAARGLDIPSIKTVVNYDVARDIDTHTHRIGRTGRAGEKGVAYTLLTSKESNFAGDLVRNLEGANQYVSKELLDLAMQNSWFRKSRFKAGKGKKLNIGGGGLGYRERPGLGAESSEHGTGGNVMSNYEAFKPSGGAMGDRLSAMKSAFQSQYKNHFVAASASTQKTGTSSINSGAWTSAGSLSSVPSAHPPSGKLPAEAAPPPVHTAMLGFTSSGTLSSIPTGYPANISSASYPAATLFGARDGASAGTESGGRERHSDSKGRHGDSHRPSDREGYRHGDGHRHSSSSRHGERNGGEGRRESSRDGRRDSSRDGESRRDGSRDGGEGRRESSRDGEGRRESSRDGDGRRESSGDGRREVVGDDGDSRKEGTREAKTDTFAIPVPPKRKKSRWDS
B3: Cep44 (protein, UniProt A2RVA7 1-384)
chain: MATGDVKGCIRKLEQRLRTLNYPRDVDYTGLIKGDPSASLPIISYTFTCYSTSIAEILISFGIELTTKSDLRFIEAVYKVLRDVFNYKPILTKQQFLQCAFSERKIQIICDIVDCVVKKHKEITGQNKVKSQLVKKVVSAKDQCEVFYPEDVSVQPSVKTTQKKPLVERHAGSEFLLPTKCYSSALVEDIEEEEPTSDSEGGSHLEHEMESPFETAETTPNSEQIELLRKQLAECQEKLQRLDCVEQRLQSLETSMKGKIIIDETDWNNLLSRVLLLETEGLLQSKKTDFSVPSEFACISEQRTSSRMTNEICSNLKTKADIPESHHQSSGYSFVLSADTSPIAIDINYSSLTEDSNETTKQRMERITKMMEETSKLLKCSNNT
B4: Cep97 (protein, UniProt Q6GPJ8 1-807)
chain: MAVAHLACDSQGSVVDLSGQGLQKLSPTLPFGNDTQTLILDKNQIIKLEHVEKCRNLVQLSVANNRLVRMMGVAKLIHLRVLNLPHNSIGYVEGLKDLVHLEWINLAGNNLKIIDQINSSTSLQHLDLSDNNISQIGDLSKLKSLKTLLLHGNNIASLRAASACLPQSLTILSLAENEIRDLNEVAFLAGLVDLEQLSIMNNPCVMATPSIPGFDYRPFIVSWCLNLKVLDGYVVSQKESLKAEWLYSQGKGRSYRLGQHIPLVQYLATVCPLTSAHGLQTEEDAKLDKILSKQRLHQKQLLHQTRSDGYLTSSTPNKRLPLSTEHHSPTHVLQTEPTVQVNNWLRSSSSEDHSYAVRNICSSPFGPPHYSSLYMEDIQTDEDKLNCSLLSSESTFMPVAPGLSPVSPTVELRVPAIKADLPVNETVIEFNKDHTELPPSETPEKPKLIPGLSAMQDDKSCCVYPVIKDENVTENIINCETAVSMESTQTSNGPTCHNLIMNCKQASVLDQDVNHINKISKAATKLQSCWRGFYARKYNPKVKDVCYEIRLSRMQEHIVFLTEEVIRLRKEKEEDRIQRILQGEAVRYLWEQVQAIQQWQNTVKLQTANSSENDLPSASNSKHANPALEELPSSPEKLNRKASPDIPDSGFHSVILNHCTMGNTEKNSSEESEYSQPSLDTGRHYNDKVPDSPADQDLTREEQSQSSKDSFTSEQDSSLLQQYLRSVEQLDETADNTSYSERTEESRPEITTCSDNSDLSCSISHFLPENSKQENIDIHSNLPSIDDGHNTPIPCDSSLLVPQPDLV
B5: POC5 (protein, UniProt Q6DFB7 1-572)
chain: MSSDEEYRESPILPKDSDHGSSVSSDLQDEYDELLRYAVVTPRFGPHFPEQNQLFTEQIKSDRFSSPKDPVQEQSLARNYSEENIPECSATSTSQRRSPPTANEEERAMSEKKSFLSGLEAFSPLHSEDLSLGGSTSSGSQVQQVRVKELPVPAENMDKVEDVLDLWSGTLKTNVMAELSKWRLTVIEQHKLEIKNQNEKHAEQISQLSSQIDKLQDHLQTYETSIQRKDEVISNLTHALEKHKEKMELMRTFTHWRLQLTEAREEDYARSLADRHYRNTLMKNAWKAWHSVIQSNWKDKIEQACRARAEEVCIELSNDYESKLTQLNSALGEARAEVQRLLAERGQFEGSMKKAFMRGVCALNMEAMSMFQGRESRMEYDPPPRREERDPSPSVTFQNPPVTSTHTSSTQHELQSALHSPVTCEPNYIHAFGPSTVSQSKEEAGAPAVISAATSASSVLSTQKLPMPRVVTSCQQKAGKIITARISARPDVSQRSSKIGSNITSMAVSPPISSIVVEKHHPVTQQTISQAAAAKYPRSALQSANSVGGRSTGQSGRVSQSHAGIHSIKVVD

target: Xenopus SART1, endogenous (Xenopus laevis (endogenous in egg extract)) (UniProt Q7ZYC1); assay: affinity purification with mass spectrometry

Row | Molecule | binding
1 | APC (from UniProt P70039 1-2829) | binds
2 | Cep152 (from UniProt Q498G2 1-1663) | binds
3 | Plk1 (from UniProt P70032 1-598) (enzyme) | binds
4 | SNRNP70 (from UniProt P09406 1-471) | binds
5 | SNRPA (from UniProt P45429 1-282) | binds
6 | B1 | binds
7 | B2 | binds
8 | B3 | binds
9 | B4 | binds
10 | B5 | binds

Results are given in words; binding and its absence hold for the method and conditions named. In cells and extracts the contact can be indirect. Here binding means that the protein was enriched with, or labelled near, the bait; the list need not be complete.
